Here are results for 62 molecules from PubChem BioAssay AID2685 (National Center for Advancing Translational Sciences (NCATS), 2010).

The nature of this assay: qHTS Assay for Lipid Storage Modulators in Drosophila S3 Cells.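 On cell number change: cells counted by Cell Tracker Red CMTPX staining in the red channel.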 Conditions: BODIPY lipid droplet fluorescence, 18-24 h; for cell number change: measured here: cell count max response, cells fed with added oleic acid. In a few lines:
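Drosophila S3 cells got compounds at several concentrations plus oleic acid (400 uM solution). Laser-scanning cytometry with 488 nm excitation read lipid droplets at 500-530 nm and cells at 575-640 nm. Percent activity was relative to 20 uM Triacsin C.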

[1] abbreviates: measured here: lipid fluorescence (Fed channel) AC50, cells fed with added oleic acid.
The mark [2] stands for this setting: measured here: cell number channel AC50, cells fed with added oleic acid.

Some of the results follow. The main result of the screen is listed elsewhere. These columns were measured beside it and carry no call. Compounds called inactive in the main read-out are mostly missing here. Words in brackets tell the shape of the fitted curve; partial curves, single points and poor fits give uncertain potencies.

As to `COc1ccc(N/C=C2\CCOC2=O)cc1`, the cell number change is -7.36%. For the same molecule, under setting [1], the AC50 was 0.058 µM [falling, full curve].

Regarding `CC(NC(=O)c1ccco1)c1ccc2c(c1)OCO2` (stereo unspecified), the cell number change was 6.49%. Further, the AC50 under setting [1] was 16.4 µM [falling, single point].

For the molecule `COc1ccc(Nc2nc3c([nH]2)c(=O)[nH]c(=O)n3C)cc1`, the cell number change is -6.02%. The half-maximal activity concentration (AC50) under setting [1] was 0.291 µM [falling, full curve, poor fit].

`COc1ccc(C(=O)N2CCCC(c3nc(-c4ccc(C)o4)no3)C2)cc1OC` (stereo unspecified): the cell number change stood at 8.97%. Moreover, the half-maximal activity concentration (AC50) under setting [1] was 6.51 µM [rising, single point].

In the case of `CN(CC(=O)NCc1ccc2c(c1)OCO2)S(=O)(=O)c1ccc(Br)s1`, the cell number change came out at 33.8%. Moreover, the half-maximal activity concentration (AC50) under setting [2] was 0.206 µM [rising, full curve, poor fit]. Further, the AC50 under setting [1] is 8.2 µM [rising, partial curve].

`Cc1ccc(CC(=O)Nc2ccncc2)cc1`: the cell number change is -60.4%. In addition, the AC50 under setting [2] is 8.2 µM [falling, partial curve]. Further, under setting [1], the AC50 is 29.1 µM [falling, single point].

In the case of `COc1cc(S(=O)(=O)n2nc(C)cc2C)ccc1Cl`, the cell number change turned out to be 16.6%. Also, the AC50 under setting [1] is 2.06 µM [rising, partial curve, poor fit].

As for `Cc1ccc(-n2c3nc(=O)[nH]c(=O)c-3cc3cc([N+](=O)[O-])ccc32)cc1C`, the cell number change was -24.3%. Besides, the concentration at half-maximal activity (AC50) under setting [1] was 2.59 µM [falling, full curve].

As to `O=C(CS(=O)(=O)c1ccc(F)cc1)NCCS(=O)(=O)c1ccccc1`, the cell number change is -26.4%. Moreover, the concentration at half-maximal activity (AC50) under setting [1] is 1.84 µM [rising, partial curve].

With `Cc1cc2cc(C)c3nnc(SCC(=O)Nc4ccc(S(=O)(=O)N5CCCCC5)cc4)n3c2cc1C`, the cell number change was -15.4%. The concentration at half-maximal activity (AC50) under setting [1] was 8.2 µM [falling, partial curve].

Regarding `N#CC1(NC(=O)CN2CCN(S(=O)(=O)c3ccccc3F)CC2)CCCC1`, the cell number change came to 2.34%. Besides, under setting [1], the half-maximal activity concentration (AC50) was 29.1 µM [rising, single point].

For `Cc1ccc(CN2C3=NCCN3c3ccccc32)cc1`, the cell number change was -7.01%. Moreover, the AC50 under setting [1] is 0.00517 µM [falling, full curve, poor fit].

Regarding `OCC12COC(c3ccccc3)N1C(c1ccccc1)OC2` (stereo unspecified), the cell number change was -9.74%. For the same molecule, the AC50 under setting [1] is 32.6 µM [rising, single point].

For `CCOc1ccc(CC(=O)NCCc2cnc[nH]2)cc1`, the cell number change stood at 14.2%.

For the molecule `O=C(CSc1nnc(Cc2cc(=O)[nH]c(=O)[nH]2)n1-c1ccc(Cl)cc1)NC1CCCC1`, the cell number change stood at 9.65%.

Turning to `Cc1cccc(NS(=O)(=O)c2nnc(NC(=O)c3ccc(C)c(C)c3)s2)c1`, the cell number change was 5.39%. Further, under setting [1], the AC50 is 6.51 µM [rising, partial curve, poor fit].

`CCCCn1nnnc1SCC(=O)NCc1ccco1`: the concentration at half-maximal activity (AC50) under setting [1] is 11.6 µM [falling, partial curve].

With `Cc1nnc(OCC(=O)NCCC2=CCCCC2)c2ccccc12`, the cell number change came out at 50%. Further, under setting [2], the AC50 was 0.0259 µM [rising, full curve].

As for `CCOC(=O)c1sc2nc(C)nc(NC3CCC(O)CC3)c2c1C` (stereo unspecified), the cell number change was -4.5%. The AC50 under setting [1] is 0.58 µM [falling, single point].

Turning to `COc1ccccc1-n1nnnc1SCC(=O)NC(=O)Cc1ccccc1`, the cell number change is -46%. In addition, the concentration at half-maximal activity (AC50) under setting [2] is 29.1 µM [falling, single point].

As to `Cc1ccc(-c2nnc(OCCN3CCOCC3)c3ccccc23)cc1`, the cell number change is -3.22%. For the same molecule, the AC50 under setting [1] is 29.1 µM [rising, single point].

As for `O=C(OC(c1ccccc1)c1nccc2ccccc12)c1cc([N+](=O)[O-])cc([N+](=O)[O-])c1` (stereo unspecified), the cell number change worked out at 10.8%. For the same molecule, under setting [1], the concentration at half-maximal activity (AC50) was 0.103 µM [rising, full curve].

In the case of `O=C(N/N=C/c1ccc(OC(=O)c2cccc(Br)c2)cc1)c1cccnc1`, the cell number change came out at 20.5%.

Regarding `O/N=C/c1ccc(OCc2ccccc2)c(Br)c1`, the cell number change stood at 5.51%. Further, the AC50 under setting [1] is 1.84 µM [rising, partial curve, poor fit].

Turning to `COc1ccccc1C(=O)N/C(=C\c1ccc(Br)cc1)C(=O)N1CCCC1`, the cell number change was determined as 10.8%.

Consider `O=C(COC(=O)CC(c1ccccc1)c1ccccc1)NCc1ccc(Cl)cc1`, for which the cell number change was -25.8%. Moreover, the AC50 under setting [2] was 3.66 µM [falling, single point]. The concentration at half-maximal activity (AC50) under setting [1] is 2.91 µM [falling, partial curve, poor fit].

Take `O=C(CCN1CCCCCC1)Nc1ccc(F)c(F)c1`: the cell number change stood at 7.62%.

Take `CC(C)Oc1ccc(/C(O)=C2/C(=O)C(=O)N(CCN3CCOCC3)C2c2ccccc2)cc1` (stereo unspecified): the AC50 under setting [2] was 6.51 µM [falling, partial curve, poor fit].

As to `Cc1cccc(OCC(=O)NNS(=O)(=O)c2ccccc2F)c1`, the cell number change came to 20.9%. Moreover, under setting [2], the half-maximal activity concentration (AC50) was 6.51 µM [rising, partial curve]. Besides, the AC50 under setting [1] is 18.4 µM [rising, partial curve].

As for `O=C1C2C3CC(C(Br)C3Br)C2C(=O)N1CC1CCCO1` (stereo unspecified), under setting [1], the AC50 is 0.164 µM [falling, full curve].

Consider `O=C(Nc1ccccc1)c1ccccc1OCc1cccc([N+](=O)[O-])c1`, for which the cell number change is 12.2%. Further, the AC50 under setting [1] is 0.651 µM [rising, partial curve].

Consider `CCOc1ccc(C2C(C(=O)Nc3ccc(F)cc3)=C(C)Nc3nc(CCCO)nn32)cc1` (stereo unspecified), for which the cell number change was -25.4%. Besides, the AC50 under setting [1] was 2.91 µM [falling, single point].

`O=C(COc1ccccc1O)c1cccs1`: the cell number change is 3.13%. Under setting [1], the concentration at half-maximal activity (AC50) is 29.1 µM [falling, single point].

As to `CC[C@@]12C(=O)N(c3ccc(OC)cc3)C(=O)N1[C@H](c1ccc(Cl)cc1)[C@@H]1C(=O)N(C3CCCCC3)C(=O)[C@@H]12`, the cell number change amounted to 32%. Moreover, the AC50 under setting [2] was 16.4 µM [rising, partial curve, poor fit].

Consider `O=C(O)CSc1nnc(CNc2ccccc2Cl)n1-c1ccccc1`, for which the cell number change was -7.74%. Under setting [1], the half-maximal activity concentration (AC50) was 23.1 µM [falling, partial curve].

Turning to `O=C(c1cc2nc(-c3ccco3)cc(C(F)(F)F)n2n1)N1CCN(Cc2ccccc2)CC1`, the cell number change was -0.54%. The AC50 under setting [1] was 0.651 µM [falling, single point].

Regarding `CC(C)(C)NC(=S)NC(=O)C12CC3CCC(CC(C3)C1)C2`, the cell number change was -33.8%. Besides, the AC50 under setting [2] was 29.1 µM [falling, single point]. In addition, under setting [1], the AC50 is 16.4 µM [falling, single point].

For `CCO/C=C1/C(=O)N(CC)c2ccccc21`, the cell number change was -20.3%. The AC50 under setting [1] is 0.411 µM [falling, full curve].

Turning to `O=C(/C=C/c1ccc2c(c1)OCO2)Nc1nc(-c2ccc(F)cc2)cs1`, the AC50 under setting [1] is 2.59 µM [rising, partial curve].

For `c1ccc(-c2nnnn2-c2ccccc2)cc1`, the cell number change came out at 6.67%.

Consider `Cc1nc(C(=O)Nc2ccccc2)sc1C1(C)CC(c2cccnc2)=NO1` (stereo unspecified), for which the cell number change stood at 14.4%. For the same molecule, the AC50 under setting [1] was 0.92 µM [rising, full curve].

Turning to `Cc1ccc(S(=O)(=O)N(C)C(C)CCc2ccco2)cc1` (stereo unspecified), the cell number change is -6.22%. Further, the AC50 under setting [1] is 1.64 µM [rising, single point].

With `CS(=O)(=O)N(CC(=O)NC1CCCCCC1)Cc1ccccc1`, the cell number change is 1.04%. Moreover, the half-maximal activity concentration (AC50) under setting [1] was 3.66 µM [falling, partial curve].

On to `CCOc1ccc(C2C(C#N)=C(N)Oc3cc(C)n(Cc4ccco4)c(=O)c32)cc1OC` (stereo unspecified), for which the cell number change worked out at 4.26%. Under setting [1], the AC50 was 1.16 µM [rising, full curve].

Take `COc1ccc(C2(C)NC(=O)N(CC3CCCCC3)C2=O)cc1` (stereo unspecified): the AC50 under setting [2] was 6.51 µM [rising, single point].

In the case of `COc1c(S(=O)(=O)NCCN2CCOCC2)ccc(Cl)c1Cl`, the cell number change is -4.57%. The AC50 under setting [2] is 1.03 µM [falling, full curve, poor fit].

Regarding `O=c1c2ccccc2nc(/C=C/c2ccc(O)cc2)n1CCc1ccccc1`, under setting [2], the AC50 is 6.51 µM [rising, single point].

As for `CC1(CCc2ccccc2)NC(=S)N(c2ccc(Cl)cc2)N1` (stereo unspecified), the cell number change is 6.51%. Also, the concentration at half-maximal activity (AC50) under setting [1] is 25.9 µM [rising, partial curve, poor fit].

With `CC(=O)c1ccc(NC(=O)C2=CC(c3cccs3)=NS(=O)(=O)N2C)cc1`, the cell number change turned out to be 12.5%.

Consider `Cc1cccc(/C=N/Nc2cc(N3CCOCC3)nc(N3CCOCC3)n2)c1`, for which the AC50 under setting [1] was 9.2 µM [rising, partial curve, poor fit].

Regarding `O=[N+]([O-])c1ccc(CSc2nnc(SCc3ccccc3)s2)cc1`, the cell number change is -15.6%. Moreover, the AC50 under setting [2] is 0.461 µM [rising, single point]. For the same molecule, the AC50 under setting [1] is 8.2 µM [rising, partial curve, poor fit].

Regarding `O=C(CSc1ccccn1)Nc1ccc2c(c1)OCCO2`, the cell number change came to 41%. For the same molecule, the concentration at half-maximal activity (AC50) under setting [2] was 6.51 µM [rising, partial curve, poor fit]. The AC50 under setting [1] was 6.51 µM [falling, single point].

`O=C1CCC/C(=N\NC(=O)NC2CCCCC2)C1`: the cell number change came to 4.71%. Moreover, under setting [2], the AC50 was 0.1 µM [falling, partial curve, poor fit].

Consider `CC(=O)Nc1ccc(S(=O)(=O)NC(C)C(=O)OCC(=O)NC2CCCC2)cc1` (stereo unspecified), for which the cell number change was -35.5%. Further, under setting [2], the AC50 was 3.66 µM [falling, full curve]. Moreover, under setting [1], the AC50 was 1.46 µM [falling, full curve].

On to `CC(=O)Nc1ccc2c(c1)ncn2-c1ccccc1`, for which the cell number change was -16.8%.

For `CC(C(=O)Nc1ccc(Br)cc1)N(C)CC(=O)NCc1ccco1` (stereo unspecified), the cell number change was -12.6%.

With `COc1ccc(C(=O)OCC(=O)c2ccc(Cl)s2)c(OC)c1OC`, the cell number change amounted to 4.41%.

In the case of `COc1ccc(OCc2n[nH]c(=S)o2)cc1`, the cell number change was 18.7%. For the same molecule, the AC50 under setting [1] was 18.4 µM [rising, single point].

For the molecule `CC(=O)c1c(Nc2cccc(F)c2)oc(C)cc1=O`, the half-maximal activity concentration (AC50) under setting [1] was 18.4 µM [falling, partial curve].

With `Cc1ccc(C(=O)c2ccccc2C(=O)OCC(=O)NCC2CCCO2)cc1` (stereo unspecified), the cell number change was determined as 84.6%. Further, the AC50 under setting [2] is 29.1 µM [rising, single point]. In addition, under setting [1], the concentration at half-maximal activity (AC50) is 25.9 µM [rising, partial curve].

In the case of `COCCCNC(=O)CCc1nc2cccnc2n1Cc1ccc(OC)cc1`, the cell number change was found to be 52.2%. Besides, the AC50 under setting [2] was 10.3 µM [rising, partial curve, poor fit]. Also, the AC50 under setting [1] is 6.51 µM [rising, single point].

Take `COc1ccc(C(=O)Nc2nc3ccccc3[nH]2)cc1S(=O)(=O)N1CCCC1`: the cell number change was -8.23%. In addition, the AC50 under setting [1] is 0.58 µM [rising, single point].
